Three molecules from article doi:10.1101/2021.08.06.455464 can be followed below.

Results are given in words; binding and its absence hold for the method and conditions named. In cells and extracts the contact can be indirect. These calls come from enrichment with a bait or labelling near it, and not all partners need be listed.

B1: DDX1 (protein, UniProt Q92499 1-740)
chain: MAAFSEMGVMPEIAQAVEEMDWLLPTDIQAESIPLILGGGDVLMAAETGSGKTGAFSIPVIQIVYETLKDQQEGKKGKTTIKTGASVLNKWQMNPYDRGSAFAIGSDGLCCQSREVKEWHGCRATKGLMKGKHYYEVSCHDQGLCRVGWSTMQASLDLGTDKFGFGFGGTGKKSHNKQFDNYGEEFTMHDTIGCYLDIDKGHVKFSKNGKDLGLAFEIPPHMKNQALFPACVLKNAELKFNFGEEEFKFPPKDGFVALSKAPDGYIVKSQHSGNAQVTQTKFLPNAPKALIVEPSRELAEQTLNNIKQFKKYIDNPKLRELLIIGGVAARDQLSVLENGVDIVVGTPGRLDDLVSTGKLNLSQVRFLVLDEADGLLSQGYSDFINRMHNQIPQVTSDGKRLQVIVCSATLHSFDVKKLSEKIMHFPTWVDLKGEDSVPDTVHHVVVPVNPKTDRLWERLGKSHIRTDDVHAKDNTRPGANSPEMWSEAIKILKGEYAVRAIKEHKMDQAIIFCRTKIDCDNLEQYFIQQGGGPDKKGHQFSCVCLHGDRKPHERKQNLERFKKGDVRFLICTDVAARGIDIHGVPYVINVTLPDEKQNYVHRIGRVGRAERMGLAISLVATEKEKVWYHVCSSRGKGCYNTRLKEDGGCTIWYNEMQLLSEIEEHLNCTISQVEPDIKVPVDEFDGKVTYGQKRAAGGGSYKGHVDILAPTVQELAALEKEAQTSFLHLGYLPNQLFRTF
B2: G3BP2 (protein, UniProt Q9UN86 1-482)
chain: MVMEKPSPLLVGREFVRQYYTLLNKAPEYLHRFYGRNSSYVHGGVDASGKPQEAVYGQNDIHHKVLSLNFSECHTKIRHVDAHATLSDGVVVQVMGLLSNSGQPERKFMQTFVLAPEGSVPNKFYVHNDMFRYEDEVFGDSEPELDEESEDEVEEEQEERQPSPEPVQENANSGYYEAHPVTNGIEEPLEESSHEPEPEPESETKTEELKPQVEEKNLEELEEKSTTPPPAEPVSLPQEPPKAFSWASVTSKNLPPSGTVSSSGIPPHVKAPVSQPRVEAKPEVQSQPPRVREQRPRERPGFPPRGPRPGRGDMEQNDSDNRRIIRYPDSHQLFVGNLPHDIDENELKEFFMSFGNVVELRINTKGVGGKLPNFGFVVFDDSEPVQRILIAKPIMFRGEVRLNVEEKKTRAARERETRGGGDDRRDIRRNDRGPGGPRGIVGGGMMRDRDGRGPPPRGGMAQKLGSGRGTGQMEGRFTGQRR
B3: SRSF7 (protein, UniProt Q16629 1-238)
chain: MSRYGRYGGETKVYVGNLGTGAGKGELERAFSYYGPLRTVWIARNPPGFAFVEFEDPRDAEDAVRGLDGKVICGSRVRVELSTGMPRRSRFDRPPARRPFDPNDRCYECGEKGHYAYDCHRYSRRRRSRSRSRSHSRSRGRRYSRSRSRSRGRRSRSASPRRSRSISLRRSRSASLRRSRSGSIKGSRYFQSPSRSRSRSRSISRPRSSRSKSRSPSPKRSRSPSGSPRRSASPERMD

The target of the assay is GFP-G3BP1 (Ras-GTPase activating SH3 domain binding protein 1) (UniProt Q13283). Briefly: affinity purification with mass spectrometry.
On to B1, for which the binding entry is given as “binds”.
As for B2, the entry is “binds”; as for B3, “binds”.
